Chains of the proteins cited; added tags and fusions are not shown. Residues count along the entry.
UniProt Q80YX1, residues 23-2110: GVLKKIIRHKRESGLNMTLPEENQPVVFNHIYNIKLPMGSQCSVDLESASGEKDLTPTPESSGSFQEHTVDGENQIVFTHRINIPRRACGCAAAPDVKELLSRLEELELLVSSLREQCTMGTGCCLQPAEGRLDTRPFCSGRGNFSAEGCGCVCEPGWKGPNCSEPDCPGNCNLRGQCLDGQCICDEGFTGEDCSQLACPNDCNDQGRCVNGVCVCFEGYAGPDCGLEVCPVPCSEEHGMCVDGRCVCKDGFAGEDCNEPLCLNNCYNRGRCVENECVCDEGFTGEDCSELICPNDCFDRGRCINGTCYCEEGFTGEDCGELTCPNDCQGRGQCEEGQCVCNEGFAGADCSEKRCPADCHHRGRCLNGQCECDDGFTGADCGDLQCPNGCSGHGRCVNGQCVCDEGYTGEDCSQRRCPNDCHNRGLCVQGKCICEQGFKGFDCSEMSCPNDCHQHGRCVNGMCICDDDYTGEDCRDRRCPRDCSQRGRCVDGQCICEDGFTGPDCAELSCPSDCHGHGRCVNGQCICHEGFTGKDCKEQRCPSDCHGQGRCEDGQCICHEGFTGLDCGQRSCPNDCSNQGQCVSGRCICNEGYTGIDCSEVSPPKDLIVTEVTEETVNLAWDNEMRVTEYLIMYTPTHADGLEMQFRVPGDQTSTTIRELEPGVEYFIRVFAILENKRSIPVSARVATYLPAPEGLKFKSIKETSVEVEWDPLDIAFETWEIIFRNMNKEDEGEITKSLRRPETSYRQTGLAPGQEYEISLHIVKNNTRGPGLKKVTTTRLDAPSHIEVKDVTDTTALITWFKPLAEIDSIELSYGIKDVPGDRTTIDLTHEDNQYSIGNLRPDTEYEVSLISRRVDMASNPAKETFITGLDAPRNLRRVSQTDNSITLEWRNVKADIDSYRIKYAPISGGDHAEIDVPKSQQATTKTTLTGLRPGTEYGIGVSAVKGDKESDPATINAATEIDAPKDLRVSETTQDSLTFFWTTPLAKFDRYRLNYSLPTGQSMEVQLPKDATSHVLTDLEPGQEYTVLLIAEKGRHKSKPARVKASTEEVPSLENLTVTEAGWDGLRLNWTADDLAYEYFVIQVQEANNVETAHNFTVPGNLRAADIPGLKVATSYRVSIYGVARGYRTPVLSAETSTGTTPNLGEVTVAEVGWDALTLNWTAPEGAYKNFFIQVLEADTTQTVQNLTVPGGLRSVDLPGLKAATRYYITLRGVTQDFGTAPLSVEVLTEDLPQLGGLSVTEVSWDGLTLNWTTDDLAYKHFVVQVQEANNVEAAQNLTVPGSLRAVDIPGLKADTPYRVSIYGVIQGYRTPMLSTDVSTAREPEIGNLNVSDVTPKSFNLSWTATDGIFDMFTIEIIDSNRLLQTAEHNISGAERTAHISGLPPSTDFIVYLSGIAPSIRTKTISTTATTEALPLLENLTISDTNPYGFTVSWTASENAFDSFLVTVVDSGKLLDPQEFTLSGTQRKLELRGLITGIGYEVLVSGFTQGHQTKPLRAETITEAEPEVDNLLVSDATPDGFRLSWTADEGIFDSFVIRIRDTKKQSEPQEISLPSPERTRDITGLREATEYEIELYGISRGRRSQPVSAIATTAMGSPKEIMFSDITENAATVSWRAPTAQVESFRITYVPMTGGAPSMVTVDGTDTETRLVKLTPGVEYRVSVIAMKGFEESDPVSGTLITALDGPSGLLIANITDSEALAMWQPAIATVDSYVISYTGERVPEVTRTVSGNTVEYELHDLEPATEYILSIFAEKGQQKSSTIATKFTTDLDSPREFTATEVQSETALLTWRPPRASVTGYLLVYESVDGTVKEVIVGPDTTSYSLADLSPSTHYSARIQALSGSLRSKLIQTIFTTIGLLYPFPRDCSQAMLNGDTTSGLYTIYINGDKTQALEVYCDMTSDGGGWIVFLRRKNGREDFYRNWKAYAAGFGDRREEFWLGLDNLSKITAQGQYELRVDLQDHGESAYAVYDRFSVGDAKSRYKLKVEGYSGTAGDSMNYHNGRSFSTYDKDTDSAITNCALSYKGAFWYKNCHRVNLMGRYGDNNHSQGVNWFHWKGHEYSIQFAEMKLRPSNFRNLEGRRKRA

In patent EP3912994A1:

Molecular target: murine strep-tagged TNC (mTNC) (mouse) (UniProt Q80YX1)
Test: co-purification with recombinant mTNC, 1 M NaCl eluate, mass spectrometry

Row | Binder | binding
1 | Galectin-3-binding protein (protein, UniProt Q07797 19-577, looked up) TEDGDMRLVNGASANEGRVEIFYRGRWGTVCDNLWNLLDAHVVCRALGYENATQALGRAAFGPGKGPIMLDEVECTGTESSLASCRSLGWMVSRCGHEKDAGVVCSNDTTGLHILDLSGELSDALGQIFDSQQGCDLFIQVTGQGYEDLSLCAHTLILRTNPEAQALWQVVGSSVIMRVDAECMPVVRDFLRYFYSRRIEVSMSSVKCLHKLASAYGATELQDYCGRLFATLLPQDPTFHTPLDLYAYARATGDSMLEDLCVQFLAWNFEPLTQSESWSAVPTTLIQALLPKSELAVSSELDLLKAVDQWSTETIASHEDIERLVEQVRFPMMLPQELFELQFNLSLYQDHQALFQRKTMQALEFHTVPVEVLAKYKGLNLTEDTYKPRLYTSSTWSSLVMASTWRAQRYEYNRYNQLYTYGYGSVARYNSYQSFQTPQHPSFLFKDKQISWSATYLPTMQSCWNYGFSCTSNELPVLGLTTSSYSNPTIGYENRVLILCGGYSVVDVTSFEGSKAPIPTALDTNSSKTPSLFPCASGAFSSFRVVIRPFYLTNSTDMV | binds
2 | Glypican-4 (protein, UniProt P51655 19-529, looked up) SLLAAELKSKSCSEVRRLYVSKGFNKNDAPLYEINGDHLKICPQDYTCCSQEMEEKYSLQSKDDFKTVVSEQCNHLQAIFASRYKKFDEFFKELLENAEKSLNDMFVKTYGHLYMQNSELFKDLFVELKRYYVAGNVNLEEMLNDFWARLLERMFRLVNSQYHFTDEYLECVSKYTEQLKPFGDVPRKLKLQVTRAFVAARTFAQGLAVARDVVSKVSVVNPTAQCTHALLKMIYCSHCRGLVTVKPCYNYCSNIMRGCLANQGDLDFEWNNFIDAMLMVAERLEGPFNIESVMDPIDVKISDAIMNMQDNSVQVSQKVFQGCGPPKPLPAGRISRSISESAFSARFRPYHPEQRPTTAAGTSLDRLVTDVKEKLKQAKKFWSSLPSTVCNDERMAAGNENEDDCWNGKGKSRYLFAVTGNGLANQGNNPEVQVDTSKPDILILRQIMALRVMTSKMKNAYNGNDVDFFDISDESSGEGSGSGCEYQQCPSEFEYNATDHSGKSANEKADS | binds
3 | Heterogeneous nuclear ribonucleoprotein M (protein, UniProt Q9D0E1 2-729, looked up) AAGVEAAAEVAATEPKMEEESGAPCVPSGNGAPGPKGEERPTQNEKRKEKNIKRGGNRFEPYSNPTKRYRAFITNIPFDVKWQSLKDLVKEKVGEVTYVELLMDAEGKSRGCAVVEFKMEESMKKAAEVLNKHSLSGRPLKVKEDPDGEHARRAMQKVMATTGGMGMGPGGPGMINIPPSILNNPNIPNEIIHALQAGRLGSTVFVANLDYKVGWKKLKEVFSMAGVVVRADILEDKDGKSRGIGIVTFEQSIEAVQAISMFNGQLLFDRPMHVKMDERALPKGDFFPPERPQQLPHGLGGIGMGLGPGGQPIDANHLSKGIGMGNLGPAGMGMEGIGFGINKIGGMEGPFGGGMENMGRFGSGMNMGRINEILSNALKRGEIIAKQGGGGAGGSVPGIERMGPGIDRISGAGMERMGAGLGHGMDRVGSEIERMGLVMDRMGSVERMGSSIERMGPLGLDHMASSIERMGQTMERIGSGVERMGAGMGFGLERMAAPIDRVGQTIERMGSGVERMGPAIERMGLSMDRMVPTGMGASLERMGPVMDRMATGLERMGANNLERMGLERMGANSLERMGLERMGANSLERMGPAMGPALGAGIERMGLAMGGAGGASFDRAIEMERGNFGGSFAGSFGGAGGHAPGVARKACQIFVRNLPFDFTWKMLKDKFNECGHVLYADIKMENGKSKGCGVVKFESPEVAERACRMMNGMKLSGREIDVRIDRNA | binds
4 | Lactadherin (protein, UniProt P21956 23-463, looked up) ASGDFCDSSLCLNGGTCLTGQDNDIYCLCPEGFTGLVCNETERGPCSPNPCYNDAKCLVTLDTQRGDIFTEYICQCPVGYSGIHCETETNYYNLDGEYMFTTAVPNTAVPTPAPTPDLSNNLASRCSTQLGMEGGAIADSQISASSVYMGFMGLQRWGPELARLYRTGIVNAWTASNYDSKPWIQVNLLRKMRVSGVMTQGASRAGRAEYLKTFKVAYSLDGRKFEFIQDESGGDKEFLGNLDNNSLKVNMFNPTLEAQYIKLYPVSCHRGCTLRFELLGCELHGCSEPLGLKNNTIPDSQMSASSSYKTWNLRAFGWYPHLGRLDNQGKINAWTAQSNSAKEWLQVDLGTQRQVTGIITQGARDFGHIQYVASYKVAHSDDGVQWTVYEEQGSSKVFQGNLDNNSHKKNIFEKPFMARYVRVLPVSWHNRITLRLELLGC | binds
5 | Matrilin-4 (protein, UniProt O89029 22-624, looked up) QLQSAGPRCYNGPLDLVFMIDSSRSVRPFEFETMRQFLVGLLRSLDVGLNATRVGVIQYSSQVQSVFPLGAFSRREDMERAIRAVVPLAQGTMTGLAIQYAMNVAFSEAEGARPSEERVPRVLVIVTDGRPQDRVAEVAAQARARGIEIYAVGVQRADVGSLRTMASPPLDQHVFLVESFDLIQEFGLQFQGRLCGKDLCAELVHGCQHLCVNAPGTFYCACNSGYKLAPDNKNCLALDLCAEGTHGCEHLCVNSVDSYFCRCRAGFALQQDQRSCRAIDYCSFGNHSCQHECVSTLAGPQCRCREGHDLLPDGRSCRVRDFCNGVDHGCEFQCVSEGLSFHCLCPEGRRLQADGKSCDRCREGHVDLVLLVDGSKSVRPQNFELVKRFVNQIVDFLDVSPEGTRVGLVQFSSRVRTEFPLGRYGTAAEVKQAVLAVEYMERGTMTGLALRHMVEHSFSEAQGARPRDLNVPRVGLVFTDGRSQDDISVWAARAKEEGIVMYAVGVGKAVEEELREIASEPSELHVSYSPDFSTMTHLLENLKGSICPEEGIGAGTELRSPCECESLVEFQGRTLGALESLTQNLARLTERLEELENQLASRK | binds

Second part, the binder after the results:

Row | binding | Binder
6 | binds | Nidogen-1 (protein, UniProt P10493 29-1245, looked up) LNRQELFPFGPGQGDLELEAGDDVVSPSLELIGELSFYDRTDITSVYVTTNGIIAMSEPPATEYHPGTFPPSFGSVAPFLADLDTTDGLGNVYYREDLSPFIIQMAAEYVQRGFPEVSFQPTSVVVVTWESVAPYGGPSSSPAEEGKRNTFQAVLASSNSSSYAIFLYPEDGLQFFTTFSKKDESQVPAVVGFSKGLVGFLWKSNGAYNIFANDRESIENLAKSSNAGHQGVWVFEIGSPATAKGVVSADVNLDLDDDGADYEDEDYDLVTSHLGLEDVATPSPSHSPRRGYPDPHNVPRILSPGYEATERPRGVPTERTRSFQLPAERFPQHHPQVIDVDEVEETGVVFSYNTGSQQTCANNRHQCSVHAECRDYATGFCCRCVANYTGNGRQCVAEGSPQRVNGKVKGRIFVGSSQVPVVFENTDLHSYVVMNHGRSYTAISTIPETVGYSLLPLAPIGGIIGWMFAVEQDGFKNGFSITGGEFTRQAEVTFLGHPGKLVLKQQFSGIDEHGHLTISTELEGRVPQIPYGASVHIEPYTELYHYSSSVITSSSTREYTVMEPDQDGAAPSHTHIYQWRQTITFQECAHDDARPALPSTQQLSVDSVFVLYNKEERILRYALSNSIGPVRDGSPDALQNPCYIGTHGCDSNAACRPGPGTQFTCECSIGFRGDGQTCYDIDECSEQPSRCGNHAVCNNLPGTFRCECVEGYHFSDRGTCVAAEDQRPINYCETGLHNCDIPQRAQCIYMGGSSYTCSCLPGFSGDGRACRDVDECQHSRCHPDAFCYNTPGSFTCQCKPGYQGDGFRCMPGEVSKTRCQLEREHILGAAGGADAQRPTLQGMFVPQCDEYGHYVPTQCHHSTGYCWCVDRDGRELEGSRTPPGMRPPCLSTVAPPIHQGPVVPTAVIPLPPGTHLLFAQTGKIERLPLERNTMKKTEAKAFLHIPAKVIIGLAFDCVDKVVYWTDISEPSIGRASLHGGEPTTIIRQDLGSPEGIALDHLGRTIFWTDSQLDRIEVAKMDGTQRRVLFDTGLVNPRGIVTDPVRGNLYWTDWNRDNPKIETSHMDGTNRRILAQDNLGLPNGLTFDAFSSQLCWVDAGTHRAECLNPAQPGRRKVLEGLQYPFAVTSYGKNLYYTDWKTNSVIAMDLAISKEMDTFHPHKQTRLYGITIALSQCPQGHNYCSVNNGGCTHLCLPTPGSRTCRCPDNTLGVDCIERK
7 | binds | Nidogen-2 (protein, UniProt O88322 31-1403, looked up) LRPDELFPYGESWGDQLLPEGDDESSAAVKLAIPLRFYDAQFSSLYVGTNGIISTQDFPRETQYVDDDFPTDFPAIAPFLADIDTSHSRGRILYREDTSGAVLSLAARYVRTGFPLSGSSFTPTHAFLATWEHVGAYEEVSRGAAPSGELNTFQAVLASDESDTYALFLYPANGLQFFGTRPKESYNVQLQLPARVGFCRGEADDLKREALYFSLTNTEQSVKNLYQLSNLGIPGVWAFHIGSRFALDNVRPATVGGDPSTARSSALEHPFSHAAALESYTEDSFHYYDENEEDVEYPPVEPGEAPEGHSRIDVSFNSKADPGLVDVGTSSPGSDRASPWPYPAPGNWPSYRETESASLDPQTKQGRPVGEGEVLDFRDPAELLDQMGTRAPAPPEADAALLTPVNEDLGGRNTQSYPEAGPVPSEPDVPVPPLEGEVLPHYPESGHVPPLRGGKYVIGLEDHVGSNDQVFTYNGANLETCEHSHGRCSQHAFCTDYTTGFCCHCQSRFYGNGKHCLPEGAPHRVNGKVSGRLRVGHIPVHFTDVDLHAYIVGNDGRAYTAISHVPQPAAQALLPVLPIGGLFGWLFALEKPGSENGFSLTGATFVHDVEVTFHPGEERVRITQTAEGLDPENYLSIKTNIEGQVPFIPANFTAHITPYKEFYHYRDSVVTSSSSRSFSLTSGSINQTWSYHIDQNITYQACRHAPRHLAIPATQQLTVDRAFALYSEDEGVLRFAVTNQIGPVEVDSAPVGVNPCYDGSHTCDTTARCHPGTGVDYTCECTPGFQGDGRSCVDVNECATGFHRCGPNSVCVNLVGSYRCECRSGYEFADDQHTCILIAPPPNPCLDGSHTCAPEGQARCIHHGGSSFSCACLPGFIGTGHQCSDVDECAENRCHEAAICYNTPGSFSCRCQPGYRGDGFHCTSDTVPEDSISGLKPCEYQQRYAQTQHAYPGSRIHIPQCDDQGNFVPLQCHGSTGFCWCVDRNGHEVPGTQTPPGSTPPHCGPPPEPTQRPRTVCERWRESLLEHYGGTPRDDQYVPQCDDLGHFIPLQCHGKSDFCWCVDKDGRELQGTRSQPGTRPACIPTVAPPVVRPTPRPDVTPPSVGTFLLYAQGQQIGHLPLNGSRLQKDAARTLLSLHGSIVVGIDYDCRERMVYWTDVAGRTISRASLEAGAEPETIITSGLISPEGLAIDHFRRTMYWTDSGLDKIERAELDGSERKVLFHTDLVNPRAITVDPIRGNLYWTDWNREAPKIETSSLDGENRRILINKDIGLPNGLTFDPFSKLLCWADAGTKKLECTLPDGTGRRVIQNHLNYPFSIVSYADHFYHTDWRRDGVISVNKDSGQFTDEFLPEQRSHLYGITAVYPYCPTGRK
8 | binds | Midkine (ligand, UniProt P12025 23-140, looked up) KKKEKVKKGSECSEWTWGPCTPSSKDCGMGFREGTCGAQTQRVHCKVPCNWKKEFGADCKYKFESWGACDGSTGTKARQGTLKKARYNAQCQETIRVTKPCTSKTKSKTKAKKGKGKD
9 | binds | Protein NDNF (protein, UniProt Q8C119 20-568, looked up) QKLPTRDEELFQMQIRDKEFFHDSSVIPDGAEVSSYLFRDTPRRYFFMVEEDNTPLSVTVTPCDAPLEWKLSLQELHEGSSADGSGDPELLDQQKQQMTDVEGTELFSYKGNDVEYFLSSSSPSGLYQLELLSTEKDTHFKVYATTTPESDQPYPELPYDPRVDVTSFGRTTVTLAWKPSPTASILKQPIEYCVVINKEHNFKSLCAAETKMNADDAFMVAPKPGLDFNPFDFAHFGFPTDNLGKDRSLLAKPSPKVGRHVYWRPKVDIQKICIGNKNIFTVSDLKPDTQYYFDVFMVNTNTNMSTAYVGAFVRTKEEAKQKTVELKDGRVTDVFVKRKGKKFLRFAPVSSHQKVTFFIHSCMDAVQVQVRRDGRLLLSQNVEGIRQFQLRGKPKGKYLIRLKGNRKGASKLKILATTRPSKHAFPSLPEDTRIKAFDKLRTCSSVTVAWLGTQERRKFCIYRKEVDGNYSEDQKRREQNQCLGPDTRKKSEKVLCKYFHSQNLQKAVTTETIRDLQPGKSYLLDVYVVGHGGHSVKYQSKIVKTRKVC

These are yes or no findings as the source states them, for the method shown. Binding seen in cells or lysates may run through a third protein. A yes stands for co-enrichment or nearness to the bait. Other partners may have been found.
